These results are taken from patent US20130131075A1, “NEW COMPOUNDS” (Boehringer Ingelheim International GmbH, priority 2009, published 2013).

SMILES strings stand for the structures. pKi: −log10 of the molar value.

The assay addresses T1, cynomolgus BK1-receptor (Macaca fascicularis, UniProt Q3BCU0).
T1 construct: expressed in transfected cells; host or cells: CHO cells (homogenate)
T1 sequence (Q3BCU0 1-352): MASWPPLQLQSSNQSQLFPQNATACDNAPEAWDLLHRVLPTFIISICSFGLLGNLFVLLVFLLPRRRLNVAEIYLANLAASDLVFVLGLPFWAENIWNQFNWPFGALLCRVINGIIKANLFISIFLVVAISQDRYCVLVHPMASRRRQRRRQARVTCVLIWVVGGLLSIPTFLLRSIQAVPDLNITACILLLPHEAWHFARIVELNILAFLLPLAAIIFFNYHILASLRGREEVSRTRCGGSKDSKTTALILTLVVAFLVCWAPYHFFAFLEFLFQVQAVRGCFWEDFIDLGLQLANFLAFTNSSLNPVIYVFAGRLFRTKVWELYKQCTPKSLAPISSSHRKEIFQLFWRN
Nature of the assay: cynoBK1-receptor binding assay. The settings on record: CHO cells expressing cynomolgus BK1-receptor, radioligand kallidine (DesArg10,Leu9). How it is done: Description of the Method of Binding the cynoBK1-Receptor
CHO cells that express the cynomolgus BK1-receptor are cultivated in “HAM'S F-12 Medium”. The medium is removed from confluent cultures, the cells are washed with PBS buffer, scraped off or detached using Versene and isolated by centrifuging. Then the cells are homogenised in suspension, the homogenate is centrifuged and resuspended. After the protein content has been determined 200 μl of the homogenate (50 to 250 μg protein/assay) are incubated for 60-180 minutes at ambient temperature with 0.5 to 5.0 nM kallidine (DesArg10,Leu9), [3,4-Prolyl-3,43H(N)] and increasing concentrations of the test substance in a total volume of 250 μl. The incubation is stopped by rapid filtration through GF/B glass fibre filters that have been pre-treated with polyethyleneimine (0.3%). The radioactivity bound to the protein is measured with a TopCount NXT. The radioactivity bound in the presence of 1.0 μM kallidine (DesArg10) is defined as non-specific binding. The concentration binding curve may be analysed using computer-aided non-linear curve fitting to determine the corresponding Ki value for the test substance.
Test results of the cynoBK1-receptor binding assay: […]

The term pKi denotes the Ki on a negative log10 scale, so that one unit is a factor of ten. As usually defined, the inhibition is the relative decrease from the control value, in per cent. `CSc1ccc(Nc2ccc(CNC(=O)C3(NC(=O)c4cncnc4)CC3)cc2)c(C(F)(F)F)c1` [(28)]: the pKi was 9.22. For the same compound, the inhibition at 10 µM (at 10 μgmol/L) amounted to 101%.
